Drawing on paper PMC5101352, this text covers binding for 1 substance.

The chains behind the UniProt entries cited, without tags or fusion partners.
UniProt P0ABA0: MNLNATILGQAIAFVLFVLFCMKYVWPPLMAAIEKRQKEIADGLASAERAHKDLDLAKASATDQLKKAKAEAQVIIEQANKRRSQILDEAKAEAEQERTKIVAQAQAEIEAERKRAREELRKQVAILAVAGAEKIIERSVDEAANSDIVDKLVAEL

This assay deals with C-terminally FLAG-tagged YbeY expressed from the chromosome (E. coli) (UniProt P0A898). Put plainly: affinity purification with mass spectrometry; C-terminally FLAG-tagged YbeY from the chromosome of E. coli MC4100; lysate on M2 anti-FLAG Sepharose beads, 4°C, 3 h; SDS-PAGE bands identified by MALDI-TOF; untagged strain as control.

No constants are given. Whether binding was seen depends on the method and setting. Binding seen in cells or lysates may run through a third protein. Here binding means that the protein was enriched with, or labelled near, the bait; the list need not be complete.

“ATP synthase subunit B, endogenous (from UniProt P0ABA0 1-156)”: the binding result was “binds”.
